The list shows a part of the results. Repeats are few or missing, and single values can be far off.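 The apoptosis fraction was the count of cleaved-PARP antibody-stained nuclei relative to all DNA-stained nuclei, imaged in 1,536-well plates. Screening doses were set so most cells survived, and baseline and induced cleaved-PARP levels vary greatly across cell lines.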
Legend:
Assay in all cases: cleaved PARP positive nuclei fraction relative to DMSO control; melanoma cells; higher = more apoptosis
Conditions in all cases: library dose: low library concentration; 72 h
COLO792 = tested on: COLO792
COLO800 = tested on: COLO800
COLO829 = tested on: COLO829
G361 = tested on: G361
IPC-298 = tested on: IPC-298
IST-MEL1 = tested on: IST-MEL1
LB2518-MEL = tested on: LB2518-MEL
LOXIMVI = tested on: LOXIMVI
MEL-HO = tested on: MEL-HO
MZ2-MEL = tested on: MZ2-MEL
MeWo = tested on: MeWo
RPMI7951 = tested on: RPMI7951
RVH-421 = tested on: RVH-421
SkMel28 = tested on: SkMel28
SkMel2 = tested on: SkMel2
SkMel30 = tested on: SkMel30
SkMel5 = tested on: SkMel5
UACC257 = tested on: UACC257
UACC62 = tested on: UACC62

SMILES | cleaved PARP positive nuclei fraction (COLO792) [%] | cleaved PARP positive nuclei fraction (COLO800) [%] | cleaved PARP positive nuclei fraction (COLO829) [%] | cleaved PARP positive nuclei fraction (G361) [%] | cleaved PARP positive nuclei fraction (IPC-298) [%] | cleaved PARP positive nuclei fraction (IST-MEL1) [%] | cleaved PARP positive nuclei fraction (LB2518-MEL) [%] | cleaved PARP positive nuclei fraction (LOXIMVI) [%] | cleaved PARP positive nuclei fraction (MEL-HO) [%] | cleaved PARP positive nuclei fraction (MZ2-MEL) [%] | cleaved PARP positive nuclei fraction (MeWo) [%] | cleaved PARP positive nuclei fraction (RPMI7951) [%] | cleaved PARP positive nuclei fraction (RVH-421) [%] | cleaved PARP positive nuclei fraction (SkMel28) [%] | cleaved PARP positive nuclei fraction (SkMel2) [%] | cleaved PARP positive nuclei fraction (SkMel30) [%] | cleaved PARP positive nuclei fraction (SkMel5) [%] | cleaved PARP positive nuclei fraction (UACC257) [%] | cleaved PARP positive nuclei fraction (UACC62) [%]
N#CC[C@H](C1CCCC1)n1cc(-c2ncnc3[nH]ccc23)cn1 [ruxolitinib] + O=C(Nc1cccc(Cl)c1)Nc1ncc(CCNc2ncnc3ccsc23)s1 [SNS314] (first compound 1 µM, partner dose 0.0008 µM) | 118 | 27.7 | 39.4 | 99.1 | 57.6 | 170 | 78.4 | 50.3 | 68.7 | 22.1 | 60.3 | 69.4 | 195 | 65.6 | 22.1 | 56.2 | 62.7 | 68.6 | 242
O=C(Nc1cc(C(F)(F)F)cc(C(F)(F)F)c1)c1cc(Cl)ccc1O + CC(C)(C)c1cnc(CSc2cnc(NC(=O)C3CCNCC3)s2)o1 [SNS-032] (first compound 0.016 µM, partner dose 0.01 µM) | 84 | 58.2 | 33.3 | 166 | 89.1 | 97.9 | 23.4 | 40 | 143 | 140 | 63.7 | 158 | 174 | 61.3 | 72.3 | 40.4 | 154 | 251 | 154
COc1cc([C@@H]2c3cc4c(cc3[C@@H](O[C@@H]3O[C@@H]5CO[C@@H](C)O[C@H]5[C@H](O)[C@H]3O)[C@H]3COC(=O)[C@H]23)OCO4)cc(OC)c1O [etoposide] + CO[C@@H]1[C@H](N(C)C(=O)c2ccccc2)C[C@H]2O[C@]1(C)n1c3ccccc3c3c4c(c5c6ccccc6n2c5c31)C(=O)NC4 [Midostaurin] (first compound 0.02 µM, partner dose 0.08 µM) | 196 | 74.4 | 85.6 | 168 | 49.4 | 69.2 | 98.2 | 163 | 80.2 | 49.3 | 196 | 108 | 61.7 | 165 | 87.5 | 50.6 | 83.6 | 79 | 121
CCCCCCCCCCCCCCCCCCOP(=O)([O-])OC1CC[N+](C)(C)CC1 [Perifosine] + COc1cc2c(Oc3ccc4[nH]c(C)cc4c3F)ncnc2cc1OCCCN1CCCC1 [cediranib] (first compound 0.4 µM, partner dose 0.4 µM) | 78.3 | 68 | 67.7 | 67 | 90.1 | 31.8 | 50.7 | 19.9 | 70.2 | 103 | 48 | 242 | 61.2 | 133 | 53.7 | 66.2 | 61.1 | 60.4 | 68.3
CC[C@]1(O)C[C@H]2CN(CCc3c([nH]c4ccccc34)[C@@](C(=O)OC)(c3cc4c(cc3OC)N(C=O)[C@H]3[C@@](O)(C(=O)OC)[C@H](OC(C)=O)[C@]5(CC)C=CCN6CC[C@]43[C@@H]65)C2)C1 [vincristine] + O=C(CCCCCCC(=O)Nc1ccccc1)NO [vorinostat] (first compound 0.0001 µM, partner dose 0.08 µM) | 184 | 55.8 | 74.3 | 119 | 49.4 | 106 | 53.1 | 95.4 | 202 | 158 | 50 | 116 | 40.6 | 105 | 98 | 80.7 | 70.9 | 216 | 83.4
N#CC[C@H](C1CCCC1)n1cc(-c2ncnc3[nH]ccc23)cn1 [ruxolitinib] + CC1(C)NC(=O)N(c2ccc([N+](=O)[O-])c(C(F)(F)F)c2)C1=O [nilutamide] (first compound 1 µM, partner dose 1 µM) | 55.4 | 77.8 | 43.2 | 65.7 | 92.6 | 160 | 123 | 40.2 | 63.8 | 85.8 | 92.8 | 108 | 32.1 | 34.2 | 75.6 | 59.5 | 57.3 | 186 | 77.5
CC[C@]1(O)C[C@H]2CN(CCc3c([nH]c4ccccc34)[C@@](C(=O)OC)(c3cc4c(cc3OC)N(C=O)[C@H]3[C@@](O)(C(=O)OC)[C@H](OC(C)=O)[C@]5(CC)C=CCN6CC[C@]43[C@@H]65)C2)C1 [vincristine] + NCC(=O)Nc1ccc(-n2nc(C(F)(F)F)cc2-c2ccc3c(ccc4ccccc43)c2)cc1 [OSU03012] (first compound 0.0001 µM, partner dose 1 µM) | 155 | 70.5 | 50.1 | 103 | 38.7 | 159 | 43.7 | 74.6 | 67.9 | 90.7 | 392 | 64.7 | 518 | 130 | 150 | 134 | 243 | 197 | 53.7
O=C(/C=C/c1cccnc1)NCCCCC1CCN(C(=O)c2ccccc2)CC1 + CC1(C)NC(=O)N(c2ccc([N+](=O)[O-])c(C(F)(F)F)c2)C1=O [nilutamide] (first compound 0.01 µM, partner dose 1 µM) | 684 | 202 | 300 | 3530 | 73.8 | 71.1 | 113 | 49.1 | 477 | 574 | 43.7 | 95.8 | 207 | 129 | 429 | 84.7 | 38.4 | 82.1 | 185
Cc1cc(Nc2cc(N3CCN(C)CC3)nc(Sc3ccc(NC(=O)C4CC4)cc3)n2)n[nH]1 [Tozasertib] + COc1cc2c(Oc3ccc4[nH]c(C)cc4c3F)ncnc2cc1OCCCN1CCCC1 [cediranib] (first compound 0.006 µM, partner dose 0.4 µM) | 104 | 92.1 | 112 | 139 | 62.1 | 114 | 213 | 63.9 | 31.7 | 210 | 106 | 105 | 75 | 124 | 31.1 | 119 | 75.6 | 92.7 | 269
Cc1cc(Nc2cc(N3CCN(C)CC3)nc(Sc3ccc(NC(=O)C4CC4)cc3)n2)n[nH]1 [Tozasertib] + CN(C)S(=O)(=O)c1ccc2c(c1)/C(=C/c1cc3c([nH]1)CCCC3)C(=O)N2 [SU6656] (first compound 0.006 µM, partner dose 0.4 µM) | 123 | 185 | 78.2 | 113 | 183 | 44.7 | 33.7 | 474 | 94 | 206 | 36.1 | 97.7 | 26.5 | 32.3 | 48.4 | 217 | 168 | 93.6 | 327
O=C(/C=C/c1cccnc1)NCCCCC1CCN(C(=O)c2ccccc2)CC1 + Cc1ccc(NC(=O)c2cccc(N(C)C)c2)cc1NC(=O)c1ccc(O)cc1 [ZM336372] (first compound 0.01 µM, partner dose 2 µM) | 449 | 43.1 | 261 | 2390 | 191 | 69.8 | 488 | 113 | 183 | 931 | 49.8 | 143 | 76.9 | 168 | 780 | 83.9 | 60.6 | 114 | 444

— the supplement of paper PMC4604168 (melanoma cell lines)
